# These are yes or no findings as the source states them, for the method shown. In cells and extracts the contact can be indirect. Some binding calls cover weakened binding; strength is not graded here.
# Sequences of proteins named here, by UniProt entry; tags and fusion partners are left off.
# UniProt Q5TDH0: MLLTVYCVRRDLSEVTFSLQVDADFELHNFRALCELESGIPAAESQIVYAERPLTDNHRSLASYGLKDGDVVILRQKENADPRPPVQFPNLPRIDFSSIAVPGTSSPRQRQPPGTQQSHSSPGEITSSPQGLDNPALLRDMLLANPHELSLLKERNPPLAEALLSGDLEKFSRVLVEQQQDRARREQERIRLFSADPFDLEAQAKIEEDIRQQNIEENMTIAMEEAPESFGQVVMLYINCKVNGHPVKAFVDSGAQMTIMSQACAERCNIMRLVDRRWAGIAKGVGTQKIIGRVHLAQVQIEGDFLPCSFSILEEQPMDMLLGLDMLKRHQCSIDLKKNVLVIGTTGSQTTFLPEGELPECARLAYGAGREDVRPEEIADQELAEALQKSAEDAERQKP
# Target: full-length DDI2 tagged with FLAG or HA (UniProt Q5TDH0)
# Experiment: co-IP; FLAG- and HA-tagged DDI2 (full length or ΔUBL) co-expressed, precipitated with FLAG-M2 affinity gel; Triton lysis buffer, 4°C 2 h, washes with 500 mM NaCl; cells with or without amino acid depletion
substance,measurement,value
full-length DDI2 tagged with FLAG or HA (from UniProt Q5TDH0 1-399),binding,binds

# — publication PMC9932127
